The target in assay [1] is Sp1 (specificity protein 1), endogenous in SH-SY5Y transfectants (human (endogenous in SH-SY5Y)) (UniProt P08047). Briefly: co-IP; stable NF-YAl, NF-YAs and NF-YAx1 SH-SY5Y transfectants; 500 μg extract, anti-Sp1 immunoprecipitation, Protein A Sepharose, 4 °C, Western blot for NF-YA; pre-immune IgG control; NF-YAl and NF-YAs bands overlap non-specific NS1 and NS2 bands. A general note: Immunoblotting shows a protein as a band on a membrane.

Amino acid sequences for entries named in this document (tags omitted).
UniProt P08047: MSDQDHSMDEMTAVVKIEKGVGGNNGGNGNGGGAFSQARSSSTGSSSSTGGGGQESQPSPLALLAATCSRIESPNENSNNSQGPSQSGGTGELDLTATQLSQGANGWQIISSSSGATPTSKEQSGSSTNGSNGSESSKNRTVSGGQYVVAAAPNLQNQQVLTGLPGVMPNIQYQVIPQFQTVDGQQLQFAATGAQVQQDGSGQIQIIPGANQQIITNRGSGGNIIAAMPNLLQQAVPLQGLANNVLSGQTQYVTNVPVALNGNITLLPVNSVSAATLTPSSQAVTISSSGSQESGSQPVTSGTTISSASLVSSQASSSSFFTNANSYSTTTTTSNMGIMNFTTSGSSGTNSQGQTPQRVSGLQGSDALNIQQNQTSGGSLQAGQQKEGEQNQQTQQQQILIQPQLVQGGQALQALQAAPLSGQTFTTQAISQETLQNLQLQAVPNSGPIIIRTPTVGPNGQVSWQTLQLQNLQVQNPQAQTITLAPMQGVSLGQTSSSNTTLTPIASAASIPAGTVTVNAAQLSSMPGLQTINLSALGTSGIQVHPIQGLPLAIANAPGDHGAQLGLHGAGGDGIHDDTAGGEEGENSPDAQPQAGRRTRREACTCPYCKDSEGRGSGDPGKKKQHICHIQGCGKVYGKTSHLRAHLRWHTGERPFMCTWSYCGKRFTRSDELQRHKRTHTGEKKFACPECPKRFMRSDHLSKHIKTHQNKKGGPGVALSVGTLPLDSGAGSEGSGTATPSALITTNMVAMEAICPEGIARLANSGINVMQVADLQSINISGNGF

Assay [2] addresses Sp1 (specificity protein 1) expressed in SL2 insect cells (UniProt P08047). Briefly: co-IP; SL2 cells 72 h after co-transfection with pAc Sp1 and NF-YA insect expression vectors; 500 μg extract, anti-Sp1 immunoprecipitation, Protein A Sepharose, 4 °C, Western blot for NF-YA; pre-immune IgG control.

Results are given in words; binding and its absence hold for the method and conditions named. In cells and extracts the contact can be indirect. Some binding calls cover weakened binding; strength is not graded here.

Data on 2 substances can be found in publication PMC6896337.

Turning to “NF-YAl in stable SH-SY5Y transfectants (from UniProt P23511-1 1-347)”, the binding entry in assay [1] is on record as “binds”.

In the case of “NF-YAl expressed in SL2 insect cells (from UniProt P23511-1 1-347)”, in assay [2], the binding result is recorded as “binds”.
